Experimental data taken from PubChem BioAssay AID504444 (National Center for Advancing Translational Sciences (NCATS), 2011).
Out of some 360,000 compounds screened, about 7,500 (2.1%) were called active. The shares of active, inactive and inconclusive entries below differ from those in the screen. Calls come from the whole dose curve; as a rule, active = well fitted inhibition curve with a large enough effect; inconclusive = small, poorly fitted or top-dose-only effect, or effect the other way; inactive = flat fitted curve, though single readings scatter. Potencies of inconclusive entries are doubtful fits and often do not repeat.

assay: Nrf2 qHTS screen for inhibitors; settings: A549 ARE-Fluc reporter, luciferase luminescence, 18-24 h; activity change, negative = inhibition: at 46 µM (top of the series); note: nearly all actives have a fitted effect of over 60% in size
Outline: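 Nrf2 function is reported as luminescence of an ARE-controlled luciferase in A549 cells. Compounds were tested at several concentrations, and a CellTiter-Fluor read on the same wells flagged cytotoxicity.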
% is set by controls: 0 for no effect and ±100 for the full control effect; potency is the fitted concentration of half-maximal effect.

SMILES | activity change, negative = inhibition | Potency
Cc1cccc(CCNc2ncnc3onc(-c4ccc(Cl)cc4)c23)c1 | inactive: 6.6% | –
O=C(CSc1nc2ccsc2c(=O)n1CC1CCC(C(=O)O)CC1)c1ccc(Cl)cc1 (configuration not stated) | – | inconclusive: 14.6 µM [falling, partial curve, poor fit]
COc1ccc(C(=S)N2CCN(c3ccccc3C)CC2)cc1 | – | inconclusive: 9.2 µM [falling, partial curve]
COc1cc2ccccc2cc1C(=O)N1CCCC1 | – | inconclusive: 5.8 µM [falling, single point]
CNC(=S)Nc1cc(OC)c(NC(=O)c2ccco2)cc1OC | inactive: 27.9% | –
CC(NCC(O)COc1ccc2ccccc2c1)c1ccccc1 (configuration not stated) | inactive: 5.95% | –
COc1ccccc1NC(=O)CSc1nnc(-c2ccncc2)o1 | – | inconclusive: 0.517 µM [activator, full curve, poor fit]
COC(=O)c1ccc(NC(=O)CN(CCc2ccccc2)S(=O)(=O)c2ccc(OC)cc2)cc1 | inactive: 1.43% | –
Cc1cccc(Cn2nc(C)n3c(cc4cc(C)ccc43)c2=O)c1 | inactive: 20.1% | –
Cc1ccc(N(Cc2ccccc2)C(=O)c2cc(S(=O)(=O)N3CCOCC3)ccc2N2CCCC2)cc1 | – | inconclusive: 23.1 µM [falling, single point]
COc1cc(C(C)=O)ccc1Oc1ncnc2c1cnn2-c1ccc(C)c(C)c1 | – | inconclusive: 16.4 µM [falling, single point]
COc1ccc(Cl)cc1NC(=O)CN(C)C(=O)Cn1[nH]c(=O)c2ccccc2c1=O | – | inconclusive: 0.58 µM [falling, full curve, poor fit]
COc1ccc(N/C=C/C(=O)c2ccc(C)cc2)c([N+](=O)[O-])c1 | – | inconclusive: 1.16 µM [activator, full curve, poor fit]
Cc1c(Cl)cccc1NC(=O)CC1Sc2ccccc2NC1=O (configuration not stated) | – | inconclusive: 23.1 µM [falling, partial curve, poor fit]
CCOc1ccc(C2NCCc3cc(OC)c(OC)cc32)cc1OC (configuration not stated) | – | inconclusive: 0.206 µM [activator, full curve, poor fit]
CCOC(=O)N1CCN(c2ccc(C(=O)c3ccccc3)cc2F)CC1 | – | inconclusive: 29.1 µM [falling, single point]
O=C(c1ccc(N2CCCS2(=O)=O)cc1)N1CCN(c2ccc(F)cc2)CC1 | – | inconclusive: 29.1 µM [falling, single point]
Cc1nc(NCc2ccco2)c2oc3ccccc3c2n1 | inactive: -23.3% | –
CCOc1ccc2nc(NC(=O)CSc3nc(-c4ccccc4)c(C#N)c(=O)[nH]3)sc2c1 | – | inconclusive: 29.1 µM [activator, single point]
COc1ccc2c(C)cc(N3CCOCC3)nc2c1 | – | inconclusive: 3.26 µM [activator, full curve, poor fit]
CCOC(=O)c1ccc(N2C(=O)c3n[nH]c(C)c3C2c2ccccc2OC)cc1 (configuration not stated) | – | active: 8.2 µM
Cc1ccc(NC(=O)NC2CCCCCCC2)cc1 | – | inconclusive: 29.1 µM [activator, single point]
CC(C)c1ccc(NC(=O)c2ccc3c(c2)CCN3S(C)(=O)=O)cc1 | – | inconclusive: 29.1 µM [falling, single point]

SMILES | activity change, negative = inhibition | Potency
CCc1ccc(OCC(=O)NC(NC(=S)Nc2ccccc2)C(Cl)(Cl)Cl)cc1 (configuration not stated) | – | inconclusive: 20.6 µM [falling, single point]
Cc1cccc(-n2c(=O)c3c(c4cc(C)ccc4n3C)n(CC(=O)NCC3CCCO3)c2=O)c1 (configuration not stated) | inactive: 32.9% | –
CCCOc1ccc(C(=O)Nc2cc3c(cc2N2CCOCC2)n(C)c(=O)n3C)cc1 | – | inconclusive: 0.0731 µM [falling, full curve, poor fit]
O=S(=O)(Nc1cccc2ncccc12)c1cccc(C(F)(F)F)c1 | – | inconclusive: 29.1 µM [falling, single point]
COc1ccccc1NS(=O)(=O)c1ccc(N/N=C(\C)C(C)C)c([N+](=O)[O-])c1 | – | inconclusive: 20.6 µM [falling, single point]
O=C(/C=C/c1ccco1)Nc1ccc2c(c1)OCCO2 | – | inconclusive: 4.11 µM [activator, partial curve]
COc1ccc(CC(=O)NNS(=O)(=O)c2ccccc2)cc1OC | inactive: 7.21% | –
Cc1nn(CC(=O)O)c(=O)c2cc3cc(F)ccc3n12 | inactive: 1.3% | –
CCN1CCN(c2nc3ccccc3nc2C(C#N)C(=O)OCc2ccccc2)CC1 (configuration not stated) | inactive: 8.09% | –
CCCS(=O)(=O)C/C(N)=N/OC(=O)c1ccccc1Cl | – | inconclusive: 29.1 µM [activator, single point]
Cc1ccc(NC(=O)c2cccnc2)cc1S(=O)(=O)N(C)C | – | inconclusive: 25.9 µM [activator, partial curve, poor fit]
CSc1ncc(CN2CCc3c([nH]c4ccccc34)C2c2cccc(O)c2)cn1 (configuration not stated) | inactive: -7.32% | –
Cc1ccc(C)c(N2CCN(c3ccc4cc(S(=O)(=O)N5CCC(C)CC5)ccc4n3)CC2)c1 | – | inconclusive: 29.1 µM [activator, single point]
CCOc1ccc(S(=O)(=O)Nc2cccc(C(=O)N3CCN(c4cccc(OC)c4)CC3)c2)cc1 | – | inconclusive: 29.1 µM [falling, single point]
c1csc(-c2nc3ccccc3[nH]2)c1 | – | inconclusive: 20.6 µM [activator, partial curve]
CCN1C(=O)c2cccc3cccc1c23 | inactive: -6.08% | –
CCn1c(C(=O)NCc2ccc(OC(C)C)cc2)cc2oc3ccccc3c21 | – | inconclusive: 5.8 µM [activator, full curve]
Cn1c(N2CCC(C(N)=O)CC2)nc2c1c(=O)n(Cc1cccc(Br)c1)c(=O)n2C | – | inconclusive: 5.8 µM [falling, full curve, poor fit]
COc1cc(/C=N/Nc2nc3ccccc3s2)ccc1OC(=O)c1ccccc1F | – | inconclusive: 25.9 µM [activator, single point]
CNC(=O)COc1ccc(Cl)c2cccnc12 | inactive: -15% | –
COc1ccc2c(c1)CC(C)C/C2=N\NC(=O)c1ccco1 (configuration not stated) | – | inconclusive: 0.517 µM [activator, full curve, poor fit]
c1ccc(NCc2nc(-c3ccccc3)no2)cc1 | – | inconclusive: 23.1 µM [activator, single point]
CC(C)=CCc1c2c(c3occ(-c4ccc(O)cc4)c(=O)c3c1O)C=CC(C)(C)O2 | – | inconclusive: 18.4 µM [falling, single point]

Some values from the results shown:
Entry for COc1ccc(CC(=O)NNS(=O)(=O)c2ccccc2)cc1OC under activity change, negative = inhibition: inactive: 7.21%
Entry for COc1cc(/C=N/Nc2nc3ccccc3s2)ccc1OC(=O)c1ccccc1F under Potency: inconclusive: 25.9 µM [activator, single point]
Entry for COc1ccc2c(c1)CC(C)C/C2=N\NC(=O)c1ccco1 (configuration not stated) under Potency: inconclusive: 0.517 µM [activator, full curve, poor fit]

Carrying on.

SMILES | activity change, negative = inhibition | Potency
CCn1cnc2cc(NC(=O)c3cccs3)ccc21 | – | inconclusive: 3.66 µM [activator, single point]
COc1cc(NC(=O)CNC(=O)Cn2c(C)cc3ccccc3c2=O)cc(OC)c1OC | – | inconclusive: 20.6 µM [falling, single point]
COc1ccc(C)cc1NC(=O)Cn1c(=O)c(C(F)(F)F)nc2ccccc21 | – | inconclusive: 29.1 µM [activator, single point]
COCCNc1oc(-c2ccc(F)cc2)nc1C#N | – | inconclusive: 1.84 µM [activator, full curve, poor fit]
CN(C)S(=O)(=O)c1ccc2c(c1)N(CC(=O)NCc1ccc(F)cc1)C(=O)CS2 | – | inconclusive: 20.6 µM [activator, single point]
CC1CCN(c2ccc(-c3cccc(NC(=O)C(F)(F)F)c3)nn2)CC1 | – | inconclusive: 29.1 µM [falling, single point]
O=C(Nc1ccc(N2CCOCC2)cc1)Nc1ccc2nc(-c3ccco3)c(-c3ccco3)nc2c1 | – | inconclusive: 25.9 µM [falling, single point]
COc1ccc(Oc2c(C(F)(F)F)oc3c(CN4CCCC(C)C4)c(O)ccc3c2=O)cc1 (configuration not stated) | inactive: 6.62% | –
CCCOc1ccc(C(=O)NNC(=S)NC(=O)c2ccccc2)cc1 | – | inconclusive: 29.1 µM [falling, partial curve, poor fit]
CCC(C)NS(=O)(=O)c1ccc(S(=O)(=O)N2CC=C(c3ccc(F)cc3)CC2)cc1 (configuration not stated) | – | inconclusive: 29.1 µM [falling, single point]
COc1ccccc1N1CCN(c2ccc(=O)n(CC(=O)NCc3ccc(OC(C)C)cc3)n2)CC1 | inactive: -22.3% | –
Cc1ccc(NC(=O)Nc2cnccn2)cc1C | – | inconclusive: 25.9 µM [activator, partial curve, poor fit]
Cc1ccc(NS(=O)(=O)c2ccc(N3CCCC3=O)cc2)cc1C | – | active: 14.6 µM
O=C(c1cc([N+](=O)[O-])ccc1Cl)N1CCN(c2ccc([N+](=O)[O-])cc2)CC1 | – | active: 20.6 µM
Cc1cc(C(=O)Cn2nc(C(=O)O)c3ccccc3c2=O)c(C)n1CCc1ccc(F)cc1 | – | inconclusive: 25.9 µM [falling, single point]
S=C(Nc1ccccc1)Nc1ccc(OCc2ccc(Cl)cc2Cl)cc1 | – | active: 18.4 µM
COc1cccc(NC(=O)CSc2nc3c([nH]c4ccccc43)c(=O)n2C)c1 | – | inconclusive: 8.2 µM [falling, partial curve]
COCC1CCN(C(=O)CCc2nnc(C3(c4ccc(Cl)cc4)CCC3)o2)C1 (configuration not stated) | – | inconclusive: 25.9 µM [activator, single point]
O=C(Nc1ccc2oc(-c3cccnc3)nc2c1)c1ccc(Br)cc1 | – | inconclusive: 2.06 µM [falling, full curve]
N#Cc1ccccc1NC(=O)c1ccccc1OCC(=O)Nc1ccc2c(c1)oc1ccccc12 | – | inconclusive: 18.4 µM [falling, single point]
CC1CCCC(C)N1C(=C(Cl)Cl)C(=C1SCCS1)[N+](=O)[O-] (configuration not stated) | – | inconclusive: 20.6 µM [falling, single point]
